In publication PMC8102002:
The exact form of at least one protein or probe is not confirmed. A negative result means that nothing was seen under these conditions. For some of these results: At least one verdict was read from the data and is not stated in words by the source.

Tests used:
[1] = tested on: MBP-LA (LANCEOLATE, CIN-TCP transcription factor); experiment: competition with a labelled probe; settings: 1x binding buffer (LightShift kit), 50 ng/uL poly(dI/dC), 2.5% glycerol, 0.05% NP-40, 50 fmol probe, 3.75 ug BSA, room temperature 30-40 min, 6% native PAGE, recombinant protein, protein details: MBP
[2] = tested on: MBP-LA (LANCEOLATE, CIN-TCP transcription factor); experiment: EMSA; settings: 1x binding buffer (LightShift kit), 50 ng/uL poly(dI/dC), 2.5% glycerol, 0.05% NP-40, 50 fmol probe, 3.75 ug BSA, room temperature 30-40 min; 6% native PAGE; recombinant protein; protein details: MBP; label: 3' biotin (end labeled)
[3] = tested on: MBP (empty); experiment: EMSA; settings: 1x binding buffer (LightShift kit), 50 ng/uL poly(dI/dC), 2.5% glycerol, 0.05% NP-40, 50 fmol probe, 3.75 ug BSA, room temperature 30-40 min; 6% native PAGE; recombinant protein; label: 3' biotin (end labeled)

| Sequence | binding result [2] | other results |
| --- | --- | --- |
| AAAAAAGGTAAATATATAAATTATGTAGGAACTCAAAAAGATTTTGTAAAGATTAGACAA (double strand) [TRR3/4-1m competitor] |  | binding result ([1]; vs biotinylated WT TRR3/4 probe): no binding |
| AAAAAAGGTAAATATATAAATTATGTAGGAACTCAAAAAGATTTTGTAAAGATTAGACAA (double strand) [TRR3/4-1m probe] | no binding |  |
| AAAAAAGGTAAATATATAAATTATGTAGGACCACAAAAAGATTTTGTAAAGATTAGACAA (double strand) [TRR3/4-1 probe] | binds | binding result [3]: no binding |
| AAAAAAGGTAAATATATAAATTATGTAGGACCACAAAAAGATTTTGTAAAGATTAGACAA (double strand) [TRR3/4-1 unlabeled competitor] |  | binding result ([1]; unlabeled, dose-dependent, vs biotinylated TRR3/4 probe): binds |
| AAGAATGGGAAGCAGCTAGATTTGGTCCCCATTATTAAGATTTAGCAAGA (double strand) [TRR16/17-1 probe] | binds |  |
| CTATTAGATTACACTTGTAAAACGTGTGGTCCAACATAGAGAAATGGTAATCTTTTTC / AAAAAGATTACCATTTCTCTATTGTTGGACCACACGTTTTACAAGTGTAATCTAATAGC [TRR8/9-1 probe] | binds |  |
